# Some of the results follow.
# B1: SynCAM (Mus musculus) (protein)
# chain: MASAVLPSGSQCAAAAAVAAAAAPPGLRLRLLLLLLSAAALIPTGDGQNLFTKDVTVIEGEVATISCQVNKSDDSVIQLLNPNRQTIYFRDFRPLKDSRFQLLNFSSSELKVSLTNVSISDEGRYFCQLYTDPPQESYTTITVLVPPRNLMIDIQKDTAVEGEEIEVNCTAMASKPATTIRWFKGNKELKGKSEVEEWSDMYTVTSQLMLKVHKEDDGVPVICQVEHPAVTGNLQTQRYLEVQYKPQVHIQMTYPLQGLTREGDAFELTCEAIGKPQPVMVTWVRVDDEMPQHAVLSGPNLFINNLNKTDNGTYRCEASNIVGKAHSDYMLYVYDPPTTIPPP
# Columns and labels:
# Assay in all cases: glycan array binding signal (z-score within array); higher = stronger binding
# Conditions in all cases: glycan notation: IUPAC condensed, linker removed
# [1] = molecular target: GlcNAc(b1-4)GlcNAc(b1-4)GlcNAc(b1-4)GlcNAc(b1-4)GlcNAc(b1-4)GlcNAc
# Outline: (§1)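 The binding signal is a Z-score computed within each array and averaged over linkers. Arrays of the same protein sequence at different concentrations or buffers were also averaged together. Data originate from 3228 arrays in the Consortium for Functional Glycomics database, kept only where the protein sequence was available.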
# [2] = molecular target: GlcNAc(b1-4)[GlcNAc(b1-6)]GalNAc
# Outline: as §1
# [3] = molecular target: GlcNAc(b1-6)Gal(b1-4)GlcNAc
# Outline: as §1
# [4] = molecular target: GlcNAc(b1-6)GalNAc
# Outline: as §1
# [5] = molecular target: GlcNAc6S(b1-3)Gal(b1-4)GlcNAc
# Outline: as §1
# [6] = molecular target: Kdn(a2-3)Gal(b1-3)GalNAc
# Outline: as §1
# [7] = molecular target: Kdn(a2-3)Gal(b1-3)GlcNAc
# Outline: as §1
# [8] = molecular target: Kdn(a2-3)Gal(b1-4)Glc
# Outline: as §1
# [9] = molecular target: Kdn(a2-3)Gal(b1-4)GlcNAc
# Outline: as §1
# [10] = molecular target: Kdn(a2-3)Gal(b1-4)[Fuc(a1-3)]GlcNAc
# Outline: as §1
# [11] = molecular target: Kdn(a2-6)Gal(b1-4)GlcNAc
# Outline: as §1
# [12] = molecular target: Man(a1-2)Man(a1-2)Man(a1-3)Man
# Outline: as §1
# [13] = molecular target: Man(a1-2)Man(a1-2)Man(a1-6)[Man(a1-3)]Man
# Outline: as §1
# [14] = molecular target: Man(a1-2)Man(a1-3)Man
# Outline: as §1
# [15] = molecular target: Man(a1-2)Man(a1-3)[Man(a1-2)Man(a1-6)]Man
# Outline: as §1
# [16] = molecular target: Man(a1-2)Man(a1-3)[Man(a1-2)Man(a1-6)]Man(a1-6)[Man(a1-2)Man(a1-2)Man(a1-3)]Man
# Outline: as §1
# [17] = molecular target: Man(a1-2)Man(a1-3)[Man(a1-2)Man(a1-6)]Man(a1-6)[Man(a1-2)Man(a1-2)Man(a1-3)]Man(b1-4)GlcNAc(b1-4)GlcNAc
# Outline: as §1
# [18] = molecular target: Man(a1-2)Man(a1-3)[Man(a1-6)]Man(a1-6)[Man(a1-2)Man(a1-3)]Man(b1-4)GlcNAc(b1-4)GlcNAc
# Outline: as §1
# [19] = molecular target: Man(a1-2)Man(a1-6)[Man(a1-3)]Man(a1-6)[Man(a1-2)Man(a1-2)Man(a1-3)]Man
# Outline: as §1
# [20] = molecular target: Man(a1-2)Man(a1-6)[Man(a1-3)]Man(a1-6)[Man(a1-2)Man(a1-2)Man(a1-3)]Man(b1-4)GlcNAc(b1-4)GlcNAc
# Outline: as §1
# [21] = molecular target: Man(a1-3)[Man(a1-6)]Man
# Outline: as §1
# [22] = molecular target: Man(a1-3)[Man(a1-6)]Man(a1-6)[Man(a1-2)Man(a1-3)]Man(b1-4)GlcNAc(b1-4)GlcNAc
# Outline: as §1
# [23] = molecular target: Man(a1-3)[Man(a1-6)]Man(a1-6)[Man(a1-3)]Man
# Outline: as §1
# [24] = molecular target: Man(a1-3)[Man(a1-6)]Man(a1-6)[Man(a1-3)]Man(b1-4)GlcNAc(b1-4)GlcNAc
# Outline: as §1
# [25] = molecular target: Man(a1-3)[Man(a1-6)]Man(b1-4)GlcNAc(b1-4)GlcNAc
# Outline: as §1
# [26] = molecular target: Man(a1-3)[Man(a1-6)]Man(b1-4)GlcNAc(b1-4)[Fuc(a1-6)]GlcNAc
# Outline: as §1
# [27] = molecular target: Man(a1-6)Man
# Outline: as §1
# [28] = molecular target: Man(b1-4)GlcNAc
# Outline: as §1
# [29] = molecular target: MurNAc(b1-4)GlcNAc
# Outline: as §1
# [30] = molecular target: Neu5Ac(a2-3)Gal
# Outline: as §1
# [31] = molecular target: Neu5Ac(a2-3)Gal(b1-3)GalNAc
# Outline: as §1
# [32] = molecular target: Neu5Ac(a2-3)Gal(b1-3)GalNAc(b1-3)Gal(a1-4)Gal(b1-4)Glc
# Outline: as §1
# [33] = molecular target: Neu5Ac(a2-3)Gal(b1-3)GalNAc(b1-4)[Neu5Ac(a2-3)]Gal(b1-4)Glc
# Outline: as §1
# [34] = molecular target: Neu5Ac(a2-3)Gal(b1-3)GalNAc(b1-4)[Neu5Ac(a2-8)Neu5Ac(a2-3)]Gal(b1-4)Glc
# Outline: as §1
# [35] = molecular target: Neu5Ac(a2-3)Gal(b1-3)GalNAc6S
# Outline: as §1
# [36] = molecular target: Neu5Ac(a2-3)Gal(b1-3)GlcNAc
# Outline: as §1
# [37] = molecular target: Neu5Ac(a2-3)Gal(b1-3)GlcNAc(b1-2)Man
# Outline: as §1
# [38] = molecular target: Neu5Ac(a2-3)Gal(b1-3)GlcNAc(b1-2)Man(a1-3)[GlcNAc(b1-4)][Neu5Ac(a2-3)Gal(b1-3)GlcNAc(b1-2)Man(a1-6)]Man(b1-4)GlcNAc(b1-4)GlcNAc
# Outline: as §1
# [39] = molecular target: Neu5Ac(a2-3)Gal(b1-3)GlcNAc(b1-2)Man(a1-3)[Neu5Ac(a2-3)Gal(b1-3)GlcNAc(b1-2)Man(a1-6)]Man(b1-4)GlcNAc(b1-4)GlcNAc
# Outline: as §1
# [40] = molecular target: Neu5Ac(a2-3)Gal(b1-3)GlcNAc(b1-3)Gal(b1-3)GlcNAc
# Outline: as §1
# [41] = molecular target: Neu5Ac(a2-3)Gal(b1-3)GlcNAc(b1-3)Gal(b1-4)GlcNAc
# Outline: as §1
# [42] = molecular target: Neu5Ac(a2-3)Gal(b1-3)GlcNAc(b1-3)GalNAc
# Outline: as §1
# [43] = molecular target: Neu5Ac(a2-3)Gal(b1-3)GlcNAc(b1-4)Gal(b1-4)Glc
# Outline: as §1
# [44] = molecular target: Neu5Ac(a2-3)Gal(b1-3)GlcNAc(b1-6)GalNAc
# Outline: as §1
# [45] = molecular target: Neu5Ac(a2-3)Gal(b1-3)GlcNAc6S
# Outline: as §1
binder,measurement,setting,value
B1,glycan array binding signal (z-score),[1],0.16
same,glycan array binding signal (z-score),[2],0.059
same,glycan array binding signal (z-score),[3],-0.073
same,glycan array binding signal (z-score),[4],-0.705
same,glycan array binding signal (z-score),[5],-0.791
same,glycan array binding signal (z-score),[6],-0.628
same,glycan array binding signal (z-score),[7],-0.746
same,glycan array binding signal (z-score),[8],-0.173
same,glycan array binding signal (z-score),[9],-0.047
same,glycan array binding signal (z-score),[10],-1.11
same,glycan array binding signal (z-score),[11],-0.324
same,glycan array binding signal (z-score),[12],-0.249
same,glycan array binding signal (z-score),[13],0.166
same,glycan array binding signal (z-score),[14],-0.614
same,glycan array binding signal (z-score),[15],-0.536
same,glycan array binding signal (z-score),[16],-0.953
same,glycan array binding signal (z-score),[17],-0.34
same,glycan array binding signal (z-score),[18],-0.236
same,glycan array binding signal (z-score),[19],-1.01
same,glycan array binding signal (z-score),[20],-0.553
same,glycan array binding signal (z-score),[21],-0.227
same,glycan array binding signal (z-score),[22],0.936
same,glycan array binding signal (z-score),[23],-1.09
same,glycan array binding signal (z-score),[24],-0.113
same,glycan array binding signal (z-score),[25],-0.604
same,glycan array binding signal (z-score),[26],-0.58
same,glycan array binding signal (z-score),[27],0.627
same,glycan array binding signal (z-score),[28],-0.306
same,glycan array binding signal (z-score),[29],-1.26
same,glycan array binding signal (z-score),[30],-0.411
same,glycan array binding signal (z-score),[31],-0.598
same,glycan array binding signal (z-score),[32],0.389
same,glycan array binding signal (z-score),[33],-0.472
same,glycan array binding signal (z-score),[34],0.566
same,glycan array binding signal (z-score),[35],-1.37
same,glycan array binding signal (z-score),[36],-0.059
same,glycan array binding signal (z-score),[37],-0.517
same,glycan array binding signal (z-score),[38],-0.332
same,glycan array binding signal (z-score),[39],0.278
same,glycan array binding signal (z-score),[40],-0.537
same,glycan array binding signal (z-score),[41],-1.56
same,glycan array binding signal (z-score),[42],-0.36
same,glycan array binding signal (z-score),[43],-0.756
same,glycan array binding signal (z-score),[44],-0.216
same,glycan array binding signal (z-score),[45],-0.498

# Three records picked at random from those above:
binder,measurement,setting,value
B1,glycan array binding signal (z-score),[10],-1.11
same,glycan array binding signal (z-score),[7],-0.746
same,glycan array binding signal (z-score),[1],0.16
